PubChem BioAssay AID1259405 – NCATS – 2018
Screen: 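Knock-downs that lift recombinant protein yield in hamster ovary cells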 (primary screen). System: Chinese hamster CHO-K1 ovary cells with stable secreted eGFP expression. Reagents: single siRNA against mouse genes, 0.8 pmol siRNA per well (2 µl of 400 nM stock). Timing: 3 days. Measurement: 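Percent of the per-plate non-targeting control median for intracellular GFP per well by laser scanning cytometry and for cell viability by ATP luminescence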. Direction: GFP, % of control: higher = more GFP per well, higher productivity; viability (ATP), % of control: higher = more viable cells (more ATP). Rule for the call: 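Called active when intracellular GFP, relative to negative control, is at or above 120%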.
The deposit covers about 50,000 reagents; this is a part drawn at random. About 4,000 of them (8%) count as active. 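Mouse siRNA library applied to hamster cells; one well for each siRNA.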 Unmarked entries are inactive. Reagents against one gene are numbered here.

The first 4 entries as a preview:
target | reagent | GFP, % of control | viability (ATP), % of control
Arnt2 | 1 | 33.9 | 105
Arnt2 | 2 | 80.4 | 62.1
4931422A03Rik | 1 | 85.7 | 90.7
4931422A03Rik | 2 | 37.3 | 25

Main list, from the first entry:
target | reagent | GFP, % of control | viability (ATP), % of control
Arnt2 | 1 | 33.9 | 105
Arnt2 | 2 | 80.4 | 62.1
4931422A03Rik | 1 | 85.7 | 90.7
4931422A03Rik | 2 | 37.3 | 25
4931422A03Rik | 3 | 75.4 | 70.1
Cyp2a4 | 1 | 80.8 | 38.7
Cyp2a4 | 2 | 42.9 | 41.7
Cyp2a4 | 3 | 76.8 | 89.3
Gcsam | 1 | 55 | 62.9
Gcsam | 2 | 53.6 | 49.6
Gcsam | 3 | 107 | 47.1
Clca1 | 1 | 51.8 | 92.8
Clca1 | 2 | 46.9 | 65.6
Clca1 | 3 | 54.4 | 78.8
Arl11 | 1 | 102 | 72.4
Arl11 | 2 | 86.3 | 77.3
Arl11 | 3 | 114 | 86.3
Map3k6 | 1 | 88.4 | 89
Dock9 | 1 | 78.9 | 46
Dock9 | 2 | 90.3 | 98.2
Dock9 | 3 | 45.3 | 58
Mtif3 | 1 | 80 | 57.6
Mtif3 | 2 | 80.8 | 27.3
Mtif3 | 3 | 93.5 | 49.4
2410018L13Rik | 1 | 149 (active) | 75.1
2410018L13Rik | 2 | 48 | 66.1
2410018L13Rik | 3 | 88.5 | 66.3
Mzf1 | 1 | 30.8 | 47.8
Mzf1 | 2 | 55.2 | 95.9
Nek7 | 1 | 53.4 | 70
Galk1 | 1 | 76.8 | 54.4
Entrep3 | 1 | 93.1 | 77.5
Entrep3 | 2 | 83.8 | 84.8
Entrep3 | 3 | 90.9 | 64.9
D930048N14Rik | 1 | 63.1 | 75.6
D930048N14Rik | 2 | 124 (active) | 65.9
D930048N14Rik | 3 | 97 | 90.3
Rasa2 | 1 | 123 (active) | 105
Rasa2 | 2 | 97.2 | 53.6
Rasa2 | 3 | 52.5 | 79
Or55b4 | 1 | 82.7 | 54
Or55b4 | 2 | 81 | 87.6
Or55b4 | 3 | 63.2 | 80.1
Or7g35 | 1 | 113 | 72.5
Or7g35 | 2 | 74.2 | 76.4
Or7g35 | 3 | 85.6 | 125
Tspan4 | 1 | 109 | 85.7
Tspan4 | 2 | 65.4 | 77.1
Tspan4 | 3 | 106 | 67.4
Rnf145 | 1 | 112 | 80.3
Rnf145 | 2 | 78.2 | 89.7
Rnf145 | 3 | 69 | 45.9
Ddx24 | 1 | 89.4 | 47.4
Ddx24 | 2 | 76.4 | 59
Ddx24 | 3 | 82.7 | 55.6
Cd79a | 1 | 74.2 | 81.4
Cd79a | 2 | 86.2 | 87.8
Cd79a | 3 | 86.2 | 99.9
Cnot8 | 1 | 76.8 | 69
Cnot8 | 2 | 100 | 85
Wdr31 | 1 | 63.7 | 61.3
Wdr31 | 2 | 76.1 | 60.1
Wdr31 | 3 | 70 | 68
A630052C17Rik | 1 | 79.7 | 80.6
A630052C17Rik | 2 | 84.2 | 41.8
A630052C17Rik | 3 | 56.5 | 87.2
Naprt | 1 | 122 (active) | 108
Naprt | 2 | 71 | 65.6
Naprt | 3 | 70.6 | 63.9
Pla2g12b | 1 | 62.4 | 59.7
Pla2g12b | 2 | 49 | 37.5
Srp14 | 1 | 64.3 | 85.9
Srp14 | 2 | 102 | 82.2
Arl14ep | 1 | 99.5 | 97.8
Arl14ep | 2 | 83.7 | 80.3
Arl14ep | 3 | 92.2 | 101
Kcnk1 | 1 | 102 | 104
Kcnk1 | 2 | 68.9 | 74
Kcnk1 | 3 | 92.5 | 103
Llgl1 | 1 | 83.4 | 56.1
Llgl1 | 2 | 56.2 | 32.7
Llgl1 | 3 | 73.4 | 77.7
Hilpda | 1 | 95.2 | 94.3
Hilpda | 2 | 38.7 | 39.8
Hilpda | 3 | 99.9 | 100
